In patent US7655425:
Results are given in words; binding and its absence hold for the method and conditions named. Some results given as binding are weak or reduced against the parent protein; the word gives no strength.

Chains of the proteins cited; added tags and fusions are not shown. Residues count along the entry.
UniProt P10147, residues 24-92: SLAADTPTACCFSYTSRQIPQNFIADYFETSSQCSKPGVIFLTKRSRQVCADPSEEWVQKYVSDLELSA

What was measured:
Test in all cases: equilibrium competition radioligand binding on transfected HL-60 cells
[1] = biological target: T1, human CC-CKR-3 (K5.5) (human) (UniProt P51679)
T1 sequence: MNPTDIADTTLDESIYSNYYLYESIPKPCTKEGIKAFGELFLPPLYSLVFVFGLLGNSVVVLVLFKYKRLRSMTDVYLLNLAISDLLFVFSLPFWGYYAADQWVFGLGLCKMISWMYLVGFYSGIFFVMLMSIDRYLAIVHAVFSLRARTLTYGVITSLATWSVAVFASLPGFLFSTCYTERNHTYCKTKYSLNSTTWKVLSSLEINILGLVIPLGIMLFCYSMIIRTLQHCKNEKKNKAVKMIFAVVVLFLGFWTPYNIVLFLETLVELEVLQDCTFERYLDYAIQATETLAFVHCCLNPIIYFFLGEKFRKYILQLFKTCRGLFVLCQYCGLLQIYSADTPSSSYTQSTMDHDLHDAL

murine CC-CKR-3 (murine) = biological target: T2, murine CC-CKR-3 (murine) (UniProt P51680)
T2 sequence (looked up): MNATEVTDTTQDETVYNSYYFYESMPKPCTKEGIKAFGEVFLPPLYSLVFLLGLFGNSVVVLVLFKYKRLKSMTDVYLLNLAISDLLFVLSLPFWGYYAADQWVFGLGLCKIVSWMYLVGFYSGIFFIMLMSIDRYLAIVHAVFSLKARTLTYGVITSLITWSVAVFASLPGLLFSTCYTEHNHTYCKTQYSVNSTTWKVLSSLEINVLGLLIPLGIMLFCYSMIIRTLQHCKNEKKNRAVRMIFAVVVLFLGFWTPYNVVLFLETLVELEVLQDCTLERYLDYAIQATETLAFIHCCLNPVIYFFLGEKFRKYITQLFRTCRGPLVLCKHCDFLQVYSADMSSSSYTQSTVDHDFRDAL

[2] = biological target: T3, human CC-CKR-3 (K5.5) (human), P51679; settings: remark: other sources report otherwise
T3 chain: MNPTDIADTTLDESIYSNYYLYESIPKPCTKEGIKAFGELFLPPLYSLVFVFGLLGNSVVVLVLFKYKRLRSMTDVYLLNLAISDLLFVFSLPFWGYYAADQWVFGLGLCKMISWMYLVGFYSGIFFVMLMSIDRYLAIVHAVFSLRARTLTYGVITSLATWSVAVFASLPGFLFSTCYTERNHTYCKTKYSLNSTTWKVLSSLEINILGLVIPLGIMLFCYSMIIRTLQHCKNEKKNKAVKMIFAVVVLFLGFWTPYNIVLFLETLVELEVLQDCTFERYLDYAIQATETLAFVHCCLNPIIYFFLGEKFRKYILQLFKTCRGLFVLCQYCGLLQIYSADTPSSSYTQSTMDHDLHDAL

Row | Molecule | binding [1] | binding (murine CC-CKR-3 (murine)) | binding [2]
1 | MIP-1α (Macrophage inflammatory polypeptide-1α) (from UniProt P10147 24-92) (ligand) | binds | binds | –
2 | RANTES (Raised on Activation, Normal T-cell derived and Secreted) (from UniProt P13501 24-91) (ligand) | – | binds | –
3 | RANTES (Raised on Activation, Normal T-cell derived and Secreted), P13501 24-91 (ligand, UniProt P13501 24-91, looked up) SPYSSDTTPCCFAYIARPLPRAHIKEYFYTSGKCSNPAVVFVTRKNRQVCANPEKKWVREYINSLEMS | – | – | binds
